{
  "source": "patent US5208217A",
  "about": "(Mount Sinai School of Medicine of The City University of …, priority 1991, dated 1993)",
  "assay": "general procedure: solution-phase peptide synthesis; azide fragment condensation; p-nitrophenyl active esters; N,N'-dicyclohexylcarbo",
  "note": "*: point of attachment. Mts = Cc1cc(C)c(S(=O)(=O)*)c(C)c1; Boc = CC(C)(C)OC(=O)*; Bn = c1ccc(C*)cc1; NHNH2 = NN*",
  "data": [
    {"substance": "Boc-Glu(OBzl)-Asn-Tyr(Bzl)-Cys(PMB)-Asn.cndot.OBzl", "values": [
      {"measurement": "step yield", "setting": "coupling step", "value": 81, "unit": "%"}
    ]},
    {"substance": "Boc-Ser(Bzl)-Leu-Trp(Mts)-Gln-Leu.cndot.OMe", "values": [
      {"measurement": "step yield", "setting": "coupling step", "value": 85, "unit": "%"}
    ]},
    {"substance": "Boc-S(Bn)LW(Mts)QL-NHNH2", "values": [
      {"measurement": "step yield", "setting": "late stage modification step", "value": 94, "unit": "%"}
    ]},
    {"substance": "Boc-Leu-Trp(Mts)-Gln-Leu.cndot.OMe", "values": [
      {"measurement": "step yield", "setting": "coupling step", "value": 71, "unit": "%"}
    ]},
    {"substance": "Boc-Gly-Val-Cys(PMB)-Ser(Bzl)-Leu-Trp(Mts)-Gln-Leu-Glu(OBzl)-Asn-Tyr(Bzl)-Cys(PMB)-Asn.cndot.OBzl", "values": [
      {"measurement": "step yield", "setting": "coupling step", "value": 82, "unit": "%"}
    ]},
    {"substance": "Z-Gly-Ile-Val-Glu(OBu^t)-Gln-Cys(PMB)-Cys(PMB)-Ala-Gly-Val-Cys(PMB)-Ser(Bzl)-Leu-Trp(Mts)-Gln-Leu-Glu(OBzl)-Asn-Tyr(Bzl)-Cys(PMB)-Asn.cndot.OBzl", "values": [
      {"measurement": "step yield", "setting": "coupling step", "value": 76, "unit": "%"}
    ]},
    {"substance": "Boc-Asn-Tyr(Bzl)-Cys(PMB)-Asn.cndot.OBzl", "values": [
      {"measurement": "step yield", "setting": "coupling step", "value": 64, "unit": "%"}
    ]},
    {"substance": "Boc-Ser(Bzl)-Leu-Trp(Mts)-Gln-Leu-Glu(OBzl)-Asn-Tyr(Bzl)-Cys(PMB)-Asn.cndot.OBzl", "values": [
      {"measurement": "step yield", "setting": "coupling step", "value": 38, "unit": "%"}
    ]}
  ]
}
